Laboratory results as given in publication PMC12431657, “Discovery and mechanistic insights of dibenzoylmethane as a broad spectrum inhibitor of coronavirus” (PLOS Pathogens, 2025).
Counter-ions that a name gives are not always drawn. Like-named read-outs stand apart in the source and are kept apart here. In all, about 3,300 compounds went through this assay and about 60 (2%) showed an effect of 50% or more. The list shows a part of the results.

System: HCoV-OC43
Parameters: species or system RD; HTS, protection from HCoV-OC43 induced cell death, luminescent cell viability (CellCounting-Lite 2.0), inhibition rate
Conditions: 24 h post infection, 1 h compound pre-incubation, 10 µM, inhibitor

| Structure (SMILES) | OC43 Inhibition rate [%] | OC43 Inhibition rate (OC43 Inhibition rate, 24 h) [%] |
| --- | --- | --- |
| O=P(O)(O)OC[C@H](O)CO [sn-Glycerol 3-phosphate] | -3.2 |  |
| O=C(OC1O[C@@H]2COC(=O)c3cc(O)c(O)c(O)c3-c3c(cc(O)c(O)c3O)C(=O)O[C@H]2[C@H](OC(=O)c2cc(O)c(O)c(O)c2)[C@H]1OC(=O)c1cc(O)c(O)c(O)c1)c1cc(O)c(O)c(O)c1 (stereo partly shown) [Tellimagrandin II] | 8.8 |  |
| COc1cc(O)c(CC=C(C)C)c2c1C(=O)C[C@@H](c1ccc(O)cc1)O2 [(2S)-Isoxanthohumol] | 48.2 |  |
| Cc1ccccc1C=O [2-Methylbenzaldehyde] | -0.2 |  |
| c1ccc2c(c1)CCO2 [Coumaran] | -0.6 |  |
| CC(=O)c1ccc(C)cc1O [2'-Hydroxy-4'-methylacetophenone] | 0.3 |  |
| Cc1cnc(C)c(C)n1 [2,3,5-Trimethylpyrazine] | 1 |  |
| C[C@H](CC(=O)C[C@](C)(O)[C@@H]1CC(=O)[C@@]2(C)C3=C(C(=O)C[C@]12C)[C@@]1(C)CC[C@H](O)C(C)(C)[C@@H]1C[C@@H]3O)C(=O)O [Ganoderic acid I] | -0.5 |  |
| C[C@H](CCC(=O)NCCS(=O)(=O)O)[C@H]1CC[C@H]2[C@@H]3[C@H](O)C[C@@H]4C[C@H](O)CC[C@]4(C)[C@H]3CC[C@]12C [Taurochenodeoxycholic acid] |  | -3.9 |
| Oc1ccc(C2COc3cc(O)ccc3C2)cc1 (racemic) [(±)-Equol] | 3.5 |  |
| Cc1ccc(C(C)C)cc1O [Carvacrol] | 1.2 |  |
| Oc1ccc2ccc3cccc4ccc1c2c34 [1-Hydroxypyrene] | 16.8 |  |
| CC(C)(O)[C@@H](O)COc1c2ccoc2cc2oc(=O)ccc12 [(-)-Oxypeucedanin hydrate] | 2 |  |
| CC(C)=CCC[C@@H](C)CCO [(R)-Citronellol] | -0.5 |  |
| C=CCc1ccc(OC)c(OC)c1 [Methyl Eugenol] | 0.2 |  |
| C=C1C(=O)O[C@@H]2CC(C)=C([C@@H](C)CCCOC(C)=O)[C@@H](O)[C@H]12 [Inulicin] | 2.8 |  |
| CC(C)=CCC[C@H](C)[C@@H]1CC[C@]2(C)C3=C(CC[C@@]12C)[C@@]1(C)CC[C@H](O)C(C)(C)[C@@H]1CC3 [Tirucallol] | 1.2 |  |
| Oc1cnc2c(O)cccc2c1 [Jineol] | -0.6 |  |
| COc1cc(C(C)=O)ccc1O[C@@H]1O[C@H](CO)[C@@H](O)[C@H](O)[C@H]1O [Androsin] | 2.2 |  |
| O[C@@H]1[C@@H](O)[C@@H]2OC[C@@H](O2)[C@H]1O [Levoglucosan] | 2.7 |  |
| COC(=O)C1=CO[C@@H](O[C@@H]2O[C@H](CO)[C@@H](O)[C@H](O)[C@H]2O)[C@H]2[C@@H]1[C@H](O)C[C@]2(C)O [Shanzhiside methyl ester] | 2.1 |  |
| COc1ccc2c(c[n+](C)c3c4cc5c(cc4ccc23)OCO5)c1OC [Chelerythrine (chloride)] | -6 |  |

In a second layout: four of the compounds above.
Structure (SMILES),OC43 Inhibition rate [%],"OC43 Inhibition rate (OC43 Inhibition rate, 24 h) [%]"
O=P(O)(O)OC[C@H](O)CO [sn-Glycerol 3-phosphate],-3.2,
O=C(OC1O[C@@H]2COC(=O)c3cc(O)c(O)c(O)c3-c3c(cc(O)c(O)c3O)C(=O)O[C@H]2[C@H](OC(=O)c2cc(O)c(O)c(O)c2)[C@H]1OC(=O)c1cc(O)c(O)c(O)c1)c1cc(O)c(O)c(O)c1 (stereo partly shown) [Tellimagrandin II],8.8,
"Cc1cnc(C)c(C)n1 [2,3,5-Trimethylpyrazine]",1,
Cc1ccc(C(C)C)cc1O [Carvacrol],1.2,

The results go on.

| Structure (SMILES) | OC43 Inhibition rate [%] | OC43 Inhibition rate (OC43 Inhibition rate, 24 h) [%] |
| --- | --- | --- |
| COc1cc2c(cc1O)CC[N+](C)(C)[C@@H]2Cc1ccc(O)cc1 [Lotusine (hydroxide)] | -0.6 |  |
| COc1cc(-c2coc3cc(O[C@@H]4O[C@H](CO)[C@@H](O)[C@H](O)[C@H]4O)c(OC)c(O)c3c2=O)cc(O)c1OC [Iridin] | 0.1 |  |
| C=C(C)[C@@H]1CC=C(CO)CC1 [(S)-(−)-Perillyl alcohol] |  | -0.5 |
| CNc1ccc2oc(C[C@H]3O[C@@]4(CC[C@H]3C)O[C@H]([C@H](C)C(=O)c3ccc[nH]3)[C@H](C)C[C@H]4C)nc2c1C(=O)O [Calcimycin] | -0.2 |  |
| CN1CC[C@]23c4ccccc4N[C@H]1[C@]21CCN(C)[C@H]3Nc2ccccc21 [Calycanthine] | 1.8 |  |
| CC(C)CCC[C@@H](C)[C@H]1CC[C@H]2C3=CC[C@H]4C[C@@H](O)CC[C@]4(C)[C@H]3CC[C@]12C [Lathosterol] | -0.2 |  |
| C[C@H]1O[C@@H](O[C@H]2CC[C@@]3(C)[C@@H](CC[C@]4(C)[C@@H]3C=CC3=C5CC(C)(C)CC[C@]5(CO)[C@@H](O)C[C@]34C)[C@]2(C)CO)[C@H](O)[C@@H](O[C@@H]2O[C@H](CO)[C@@H](O)[C@H](O)[C@H]2O)[C@H]1O [Saikosaponin B1] | 1.4 |  |
| O=C(/C=C/c1ccccc1)OC[C@H]1O[C@@H](O[C@@H]2OC=C[C@H]3[C@H](O)[C@@H]4O[C@]4(CO)[C@@H]23)[C@H](O)[C@@H](O)[C@@H]1O [Picroside I] | 2.8 |  |
| OC[C@H]1O[C@@H](Oc2cc(O)cc(/C=C/c3ccc(O)cc3)c2)[C@H](O)[C@@H](O)[C@@H]1O [Polydatin] | 0.4 |  |
| C/C=C1/CN2CCc3c([nH]c4ccccc34)[C@@H]2C[C@@H]1/C(=C/OC)C(=O)OC [Geissoschizine methyl ether] | -0.1 |  |
| O=c1c(O)c(-c2ccc(O)cc2O)oc2cc(O)cc(O)c12 [Morin] | -1 |  |
| NC(=O)NCCCC(N)C(=O)O (stereo not shown) [2-Amino-5-ureidopentanoic acid] | -5.8 |  |
| O=C(O)CC(C(=O)O)C(O)C(=O)O (racemic) [DL-Isocitric acid (trisodium salt)] | 2.5 |  |
| C=C1CC[C@@H]2[C@](C)(CO)[C@H](O)CC[C@@]2(C)[C@H]1C/C=C1\C=COC1=O [Dehydroandrographolide] | 0.2 |  |
| O=c1c(-c2ccc(O)cc2)coc2cc(O[C@@H]3O[C@H](CO)[C@@H](O)[C@H](O)[C@H]3O)ccc12 [Daidzin] | 3.9 |  |
| N[C@@H](Cc1c[nH]c2ccc(O)cc12)C(=O)O [5-Hydroxytryptophan] |  | 6.4 |
| NC(CCS)C(=O)O (racemic) [DL-Homocysteine] | -2.9 |  |
| COc1ccc2c(c1)[nH]c1c(C)nccc12 [Harmine (hydrochloride)] |  | 7.2 |
| COc1cc(O)c2c(c1)O[C@H](c1cc(O)cc(O)c1)CC2=O [Blumeatin] | 2.8 |  |
| COC(=O)/C=C/C(C)=C\C=C\C(C)=C\C=C\C=C(C)\C=C\C=C(C)\C=C\C(=O)O [Bixin] | -1.7 |  |
| C=C1[C@H]2C[C@@]3([C@@H]1O)[C@@H](CC2=O)[C@]12[C@@H]4C[C@H]3[C@H]1N(CC)C[C@]4(C)CC[C@@H]2O [Songorine] | 1.3 |  |
| O=C1c2ccccc2C(=O)c2c1ccc(O)c2O [Alizarin] | 1.3 |  |

| Structure (SMILES) | OC43 Inhibition rate [%] | OC43 Inhibition rate (OC43 Inhibition rate, 24 h) [%] |
| --- | --- | --- |
| COc1cc(O)ccc1/C=C/C(=O)c1ccc(O)cc1 [Echinatin] | 46.1 |  |
| CC(C)=CCC[C@](C)(O)[C@@H]1CC=C(C)CC1 [Levomenol] |  | -0.7 |
| COC(=O)C1=CO[C@@H](O[C@@H]2O[C@H](CO)[C@@H](O)[C@H](O)[C@H]2O)[C@@H]2[C@@]3(C)O[C@H]3[C@@H](O)[C@]12O [Sesamoside] | -1.2 |  |
| Cn1ccc(=O)n(C)c1=O [1,3-Dimethyluracil] | -0.2 |  |
| COc1ccc([C@@H]2CC(=O)c3c(O)cc(O[C@@H]4O[C@H](CO)[C@@H](O)[C@H](O)[C@H]4O[C@@H]4O[C@@H](C)[C@H](O)[C@@H](O)[C@H]4O)cc3O2)cc1O [Neohesperidin] | -0.6 |  |
| CC(C)=CCC[C@]1(C)CC[C@]2(C)[C@H]3CC[C@@]4(C)[C@@H](CCC(=O)[C@@H]4C)[C@]3(C)CC[C@@]2(C)C1 [Shionone] | 2.2 |  |
| O=C(/C=C/c1ccc(O)c(O)c1)OCCc1ccccc1 [Caffeic acid phenethyl ester] | 3 |  |
| O=c1cc(-c2ccc(O[C@@H]3O[C@H](CO)[C@@H](O)[C@H](O)[C@H]3O)cc2)oc2cc(O)c([C@@H]3O[C@H](CO)[C@@H](O)[C@H](O)[C@H]3O[C@@H]3OC[C@H](O)[C@H](O)[C@H]3O)c(O)c12 [Vaccarin] | 0 |  |
| O=C(O)C(O)O [2,2-Dihydroxyacetic acid] | -0.7 |  |
| C[C@H](CCC(=O)O)[C@H]1CC[C@H]2[C@@H]3[C@H](O)C[C@@H]4C[C@H](O)CC[C@]4(C)[C@H]3CC[C@]12C [Chenodeoxycholic Acid] | 4.3 |  |
| O=C(O)C(O)c1ccccc1 (stereo not shown) [Mandelic acid] | 0 |  |
| O=C(O)/C=C\c1cc2ccoc2cc1O[C@@H]1O[C@H](CO)[C@@H](O)[C@H](O)[C@H]1O [Psoralenoside] | 0.4 |  |
| CN1CCC=C(C(=O)O)C1 [Arecaidine] |  | -6.2 |
| c1cncc(C2=NCCC2)c1 [Myosmine] | -0.2 |  |
| COC(=O)c1ccccc1O[C@@H]1O[C@H](CO[C@@H]2OC[C@@H](O)[C@H](O)[C@H]2O)[C@@H](O)[C@H](O)[C@H]1O [Gaultherin] | 2.1 |  |
| Cn1c(=O)[nH]c2[nH]cnc2c1=O [1-Methylxanthine] | -0.9 |  |
| CC[C@H](C)C(=O)O[C@H]1CCC=C2C=C[C@H](C)[C@H](CC[C@@H]3C[C@@H](O)CC(=O)O3)[C@H]21 [Mevastatin] | 12.2 |  |
| CC(=O)O[C@H]1C[C@@]2(O)[C@@H](OC(=O)c3ccccc3)[C@@H]3[C@]4(OC(C)=O)CO[C@@H]4C[C@H](O)[C@@]3(C)[C@@H](O)[C@H](OC(C)=O)C(=C1C)C2(C)C [9-Dihydro-13-acetylbaccatin III] | -1.1 |  |
| Cc1nc(C)c(C)nc1C [Ligustrazine] | -0.2 |  |
| C=C1C[C@@]23CC[C@H]4[C@@](C)(CCC[C@@]4(C)C(=O)O)[C@@H]2CC[C@]1(O[C@@H]1O[C@H](CO)[C@@H](O)[C@H](O[C@@H]2O[C@H](CO)[C@@H](O)[C@H](O)[C@H]2O)[C@H]1O[C@@H]1O[C@H](CO)[C@@H](O)[C@H](O)[C@H]1O)C3 [Rebaudioside B] | 0 |  |
